Record: PubChem BioAssay AID1259331 (Drosophila RNAi Screening Center, 2017)
The deposit covers about 3,100 reagents; this is a part drawn at random. 126 of them (4.1%) were called active. 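Calls are per reagent; zinc was so toxic that few knock-downs lowered ATP further, so most hits raise ATP.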 Raw values vary from plate to plate and are shown uncorrected. A number with no mark means an inactive call. Reagent sequences are not shown. Not stated in the record: the amount of reagent.

Test: 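Genes whose knock-down changes cell survival under toxic zinc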 (primary screen)
Cells: Drosophila S2R+ cells
Reagent: long dsRNA against Drosophila genes
Timing: 5 days (4 days knock-down, then 1 day zinc)
Conditions: zinc chloride at 15 mM final level for 1 day
Read-out: 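Total cellular ATP measured by luciferase luminescence as a viability proxy, turned into Z scores from three plate copies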
Reading the numbers: mean Z score: higher = more ATP than other wells, better survival under zinc; ATP luminescence: higher = more ATP, more viable cells
Rule for the call: 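Hit when the absolute Z score is greater than 1.5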
Calls: active = hit, ATP up or down; inactive = not a hit

CG8195 [DRSC07103] — mean Z score = -0.479; ATP luminescence, replicate 1 = 23942; ATP luminescence, replicate 2 = 27662
VAChT [DRSC13311] — mean Z score = 1.3; ATP luminescence, replicate 1 = 60152; ATP luminescence, replicate 2 = 50909
VAChT [DRSC23986] — mean Z score = 0.00316; ATP luminescence, replicate 1 = 72071; ATP luminescence, replicate 2 = 43828
CG32081 [DRSC09861] — mean Z score = -0.128; ATP luminescence, replicate 1 = 72260; ATP luminescence, replicate 2 = 60392
CG32081 [DRSC39618] — mean Z score = 0.125; ATP luminescence, replicate 1 = 64165; ATP luminescence, replicate 2 = 63719
Vang [DRSC07570] — mean Z score = 0.0991; ATP luminescence, replicate 1 = 1.08e5; ATP luminescence, replicate 2 = 72911
CG6293 [DRSC16011] — mean Z score = 1.52 (active); ATP luminescence, replicate 1 = 62673; ATP luminescence, replicate 2 = 63531
CG6293 [DRSC28774] — mean Z score = 0.124; ATP luminescence, replicate 1 = 67612; ATP luminescence, replicate 2 = 58906
CG18788 [DRSC02697] — mean Z score = -0.454; ATP luminescence, replicate 1 = 39662; ATP luminescence, replicate 2 = 30610
nAChRbeta3 [DRSC00325] — mean Z score = 1.77 (active); ATP luminescence, replicate 1 = 76136; ATP luminescence, replicate 2 = 86634
MFS1 [DRSC04115] — mean Z score = 0.573; ATP luminescence, replicate 1 = 60272; ATP luminescence, replicate 2 = 46280
MFS1 [DRSC27926] — mean Z score = 0.439; ATP luminescence, replicate 1 = 65965; ATP luminescence, replicate 2 = 63016

In a second layout: entries from further up
CG6293 [DRSC28774]
- mean Z score: 0.124
- ATP luminescence, replicate 1: 67612
- ATP luminescence, replicate 2: 58906

CG18788 [DRSC02697]
- mean Z score: -0.454
- ATP luminescence, replicate 1: 39662
- ATP luminescence, replicate 2: 30610
